Laboratory results reported in publication PMC6562498.
Where a chain is given by its changes, count along the chain named. No constants are given. Whether binding was seen depends on the method and setting. In cells and extracts the contact can be indirect. Some entries that bind do so weakly or less than the wild type. For part of these data: Where a sequence is shown, tags or fusion partners need not be part of it.

Protein sequences, listed by entry. Tags and fused reporters are not part of them.
UniProt P78527: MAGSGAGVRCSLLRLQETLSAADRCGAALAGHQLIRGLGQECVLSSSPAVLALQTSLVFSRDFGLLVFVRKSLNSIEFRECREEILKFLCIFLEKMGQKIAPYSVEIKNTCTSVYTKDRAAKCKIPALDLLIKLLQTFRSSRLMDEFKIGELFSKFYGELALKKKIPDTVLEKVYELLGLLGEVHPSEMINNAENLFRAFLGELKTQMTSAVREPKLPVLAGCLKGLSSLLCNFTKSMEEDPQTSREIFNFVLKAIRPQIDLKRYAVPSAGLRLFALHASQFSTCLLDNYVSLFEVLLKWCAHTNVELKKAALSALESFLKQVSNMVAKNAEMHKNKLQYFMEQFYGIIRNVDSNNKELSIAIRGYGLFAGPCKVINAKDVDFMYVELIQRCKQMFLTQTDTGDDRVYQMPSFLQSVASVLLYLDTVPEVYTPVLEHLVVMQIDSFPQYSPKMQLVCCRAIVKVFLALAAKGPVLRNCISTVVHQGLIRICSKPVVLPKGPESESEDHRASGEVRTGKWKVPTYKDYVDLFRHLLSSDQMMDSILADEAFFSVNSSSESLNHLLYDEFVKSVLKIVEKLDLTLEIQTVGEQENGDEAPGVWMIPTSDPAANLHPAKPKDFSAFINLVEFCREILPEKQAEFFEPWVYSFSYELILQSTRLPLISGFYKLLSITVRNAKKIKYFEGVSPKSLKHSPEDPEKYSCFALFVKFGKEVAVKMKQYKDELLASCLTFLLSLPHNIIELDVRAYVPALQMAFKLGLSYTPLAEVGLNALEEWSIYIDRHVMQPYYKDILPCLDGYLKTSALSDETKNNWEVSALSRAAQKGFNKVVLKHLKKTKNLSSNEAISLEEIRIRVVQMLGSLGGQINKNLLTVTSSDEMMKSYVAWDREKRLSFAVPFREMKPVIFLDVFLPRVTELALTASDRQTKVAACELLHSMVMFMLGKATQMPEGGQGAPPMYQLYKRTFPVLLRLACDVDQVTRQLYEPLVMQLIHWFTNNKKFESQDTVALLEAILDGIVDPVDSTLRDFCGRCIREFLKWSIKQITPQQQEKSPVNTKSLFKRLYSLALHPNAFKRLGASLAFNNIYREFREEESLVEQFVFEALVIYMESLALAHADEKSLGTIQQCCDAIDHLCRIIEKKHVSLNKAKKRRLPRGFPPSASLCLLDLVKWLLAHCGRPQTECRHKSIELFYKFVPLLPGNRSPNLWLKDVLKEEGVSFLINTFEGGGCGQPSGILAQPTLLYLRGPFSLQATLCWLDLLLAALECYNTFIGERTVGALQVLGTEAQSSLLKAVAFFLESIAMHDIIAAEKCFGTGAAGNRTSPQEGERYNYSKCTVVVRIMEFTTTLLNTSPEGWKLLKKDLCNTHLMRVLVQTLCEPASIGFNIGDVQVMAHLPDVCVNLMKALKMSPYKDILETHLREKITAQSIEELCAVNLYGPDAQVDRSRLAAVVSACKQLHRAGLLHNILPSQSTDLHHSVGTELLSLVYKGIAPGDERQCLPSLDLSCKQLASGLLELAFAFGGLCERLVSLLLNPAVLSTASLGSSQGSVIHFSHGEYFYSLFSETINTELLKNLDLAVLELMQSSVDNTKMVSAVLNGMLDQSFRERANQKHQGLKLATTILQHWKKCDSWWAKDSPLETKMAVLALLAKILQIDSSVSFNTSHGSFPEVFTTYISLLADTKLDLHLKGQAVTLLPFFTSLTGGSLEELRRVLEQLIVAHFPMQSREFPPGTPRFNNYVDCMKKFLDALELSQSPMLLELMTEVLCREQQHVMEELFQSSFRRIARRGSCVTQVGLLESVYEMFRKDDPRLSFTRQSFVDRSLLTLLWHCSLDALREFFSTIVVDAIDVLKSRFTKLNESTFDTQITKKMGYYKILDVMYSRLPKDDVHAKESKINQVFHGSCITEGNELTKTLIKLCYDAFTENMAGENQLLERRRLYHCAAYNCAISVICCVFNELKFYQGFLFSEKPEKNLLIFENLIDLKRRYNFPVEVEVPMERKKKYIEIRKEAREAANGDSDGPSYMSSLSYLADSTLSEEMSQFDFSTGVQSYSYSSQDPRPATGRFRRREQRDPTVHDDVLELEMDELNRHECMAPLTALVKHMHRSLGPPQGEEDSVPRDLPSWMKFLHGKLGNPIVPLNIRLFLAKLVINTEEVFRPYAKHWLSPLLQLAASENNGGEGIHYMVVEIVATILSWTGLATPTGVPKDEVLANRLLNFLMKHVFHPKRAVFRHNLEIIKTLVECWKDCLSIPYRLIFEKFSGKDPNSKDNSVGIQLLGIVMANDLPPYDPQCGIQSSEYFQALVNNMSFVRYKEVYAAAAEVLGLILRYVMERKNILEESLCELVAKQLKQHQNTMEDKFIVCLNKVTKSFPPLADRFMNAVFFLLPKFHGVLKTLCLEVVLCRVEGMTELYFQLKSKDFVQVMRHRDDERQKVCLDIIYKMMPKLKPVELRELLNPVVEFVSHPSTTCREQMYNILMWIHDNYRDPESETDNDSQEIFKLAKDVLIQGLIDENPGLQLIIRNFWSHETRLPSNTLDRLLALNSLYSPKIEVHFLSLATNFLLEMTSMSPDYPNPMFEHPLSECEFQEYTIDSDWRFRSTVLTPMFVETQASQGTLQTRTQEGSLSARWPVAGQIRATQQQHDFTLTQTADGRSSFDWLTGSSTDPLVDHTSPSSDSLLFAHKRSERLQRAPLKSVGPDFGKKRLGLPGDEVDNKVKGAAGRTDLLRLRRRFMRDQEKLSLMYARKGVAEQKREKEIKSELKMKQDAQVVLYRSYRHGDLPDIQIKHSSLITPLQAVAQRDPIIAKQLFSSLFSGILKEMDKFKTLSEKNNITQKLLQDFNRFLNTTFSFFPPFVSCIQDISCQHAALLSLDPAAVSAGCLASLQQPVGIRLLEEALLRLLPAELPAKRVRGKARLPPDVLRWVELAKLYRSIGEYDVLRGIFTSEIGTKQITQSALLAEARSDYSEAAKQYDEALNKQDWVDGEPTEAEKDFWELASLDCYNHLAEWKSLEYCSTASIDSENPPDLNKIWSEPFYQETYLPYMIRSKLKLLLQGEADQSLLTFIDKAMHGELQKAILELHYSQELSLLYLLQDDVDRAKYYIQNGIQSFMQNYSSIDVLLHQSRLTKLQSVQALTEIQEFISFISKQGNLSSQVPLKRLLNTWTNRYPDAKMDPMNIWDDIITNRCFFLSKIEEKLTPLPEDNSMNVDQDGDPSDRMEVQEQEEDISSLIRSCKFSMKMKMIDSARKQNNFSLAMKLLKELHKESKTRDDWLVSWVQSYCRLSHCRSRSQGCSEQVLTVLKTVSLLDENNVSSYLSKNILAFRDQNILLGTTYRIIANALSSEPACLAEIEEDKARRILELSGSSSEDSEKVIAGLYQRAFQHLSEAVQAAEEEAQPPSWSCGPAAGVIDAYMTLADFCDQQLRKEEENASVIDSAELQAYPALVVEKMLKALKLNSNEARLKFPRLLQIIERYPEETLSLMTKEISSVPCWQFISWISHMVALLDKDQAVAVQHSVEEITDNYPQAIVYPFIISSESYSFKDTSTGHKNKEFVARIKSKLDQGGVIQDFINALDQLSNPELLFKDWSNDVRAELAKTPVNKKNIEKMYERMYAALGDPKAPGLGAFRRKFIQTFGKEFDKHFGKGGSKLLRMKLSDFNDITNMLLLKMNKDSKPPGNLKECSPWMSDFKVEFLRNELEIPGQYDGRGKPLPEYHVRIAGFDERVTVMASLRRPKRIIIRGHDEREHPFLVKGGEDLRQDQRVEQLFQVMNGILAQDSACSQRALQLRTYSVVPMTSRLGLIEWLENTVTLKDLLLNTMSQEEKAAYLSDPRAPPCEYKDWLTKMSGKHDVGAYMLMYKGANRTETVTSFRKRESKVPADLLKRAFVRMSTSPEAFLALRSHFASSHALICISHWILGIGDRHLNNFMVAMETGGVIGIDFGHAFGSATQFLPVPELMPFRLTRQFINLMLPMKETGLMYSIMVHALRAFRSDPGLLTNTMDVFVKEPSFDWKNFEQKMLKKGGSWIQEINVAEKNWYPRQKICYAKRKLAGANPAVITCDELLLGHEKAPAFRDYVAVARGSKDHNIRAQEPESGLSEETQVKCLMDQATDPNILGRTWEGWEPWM
UniProt P09874: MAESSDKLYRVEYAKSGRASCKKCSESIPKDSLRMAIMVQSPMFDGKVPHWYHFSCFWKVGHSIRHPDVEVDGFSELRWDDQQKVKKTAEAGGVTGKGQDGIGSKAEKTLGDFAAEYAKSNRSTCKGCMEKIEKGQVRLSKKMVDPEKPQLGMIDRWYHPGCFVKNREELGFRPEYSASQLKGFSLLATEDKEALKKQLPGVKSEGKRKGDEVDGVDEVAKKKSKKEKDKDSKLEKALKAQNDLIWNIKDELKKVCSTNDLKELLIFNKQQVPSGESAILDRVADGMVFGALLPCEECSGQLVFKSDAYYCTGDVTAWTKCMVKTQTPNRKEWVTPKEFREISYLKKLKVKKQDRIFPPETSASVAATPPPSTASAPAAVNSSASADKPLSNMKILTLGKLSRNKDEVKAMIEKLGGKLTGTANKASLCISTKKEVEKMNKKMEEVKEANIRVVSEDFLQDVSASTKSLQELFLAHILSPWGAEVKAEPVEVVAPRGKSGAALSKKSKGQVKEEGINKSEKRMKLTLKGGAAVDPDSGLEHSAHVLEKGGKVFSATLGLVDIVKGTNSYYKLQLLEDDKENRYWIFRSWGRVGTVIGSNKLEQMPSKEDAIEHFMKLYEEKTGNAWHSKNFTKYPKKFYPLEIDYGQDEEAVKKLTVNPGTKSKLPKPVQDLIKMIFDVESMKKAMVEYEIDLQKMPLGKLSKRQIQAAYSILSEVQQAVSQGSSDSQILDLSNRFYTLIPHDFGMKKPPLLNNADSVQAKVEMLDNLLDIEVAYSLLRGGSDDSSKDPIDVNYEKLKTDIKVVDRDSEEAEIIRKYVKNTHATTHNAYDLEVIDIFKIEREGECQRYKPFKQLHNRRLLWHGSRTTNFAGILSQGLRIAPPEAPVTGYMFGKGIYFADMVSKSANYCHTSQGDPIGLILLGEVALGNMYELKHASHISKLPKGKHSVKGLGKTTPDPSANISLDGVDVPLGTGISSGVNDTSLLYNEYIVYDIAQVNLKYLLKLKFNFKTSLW
UniProt Q92878: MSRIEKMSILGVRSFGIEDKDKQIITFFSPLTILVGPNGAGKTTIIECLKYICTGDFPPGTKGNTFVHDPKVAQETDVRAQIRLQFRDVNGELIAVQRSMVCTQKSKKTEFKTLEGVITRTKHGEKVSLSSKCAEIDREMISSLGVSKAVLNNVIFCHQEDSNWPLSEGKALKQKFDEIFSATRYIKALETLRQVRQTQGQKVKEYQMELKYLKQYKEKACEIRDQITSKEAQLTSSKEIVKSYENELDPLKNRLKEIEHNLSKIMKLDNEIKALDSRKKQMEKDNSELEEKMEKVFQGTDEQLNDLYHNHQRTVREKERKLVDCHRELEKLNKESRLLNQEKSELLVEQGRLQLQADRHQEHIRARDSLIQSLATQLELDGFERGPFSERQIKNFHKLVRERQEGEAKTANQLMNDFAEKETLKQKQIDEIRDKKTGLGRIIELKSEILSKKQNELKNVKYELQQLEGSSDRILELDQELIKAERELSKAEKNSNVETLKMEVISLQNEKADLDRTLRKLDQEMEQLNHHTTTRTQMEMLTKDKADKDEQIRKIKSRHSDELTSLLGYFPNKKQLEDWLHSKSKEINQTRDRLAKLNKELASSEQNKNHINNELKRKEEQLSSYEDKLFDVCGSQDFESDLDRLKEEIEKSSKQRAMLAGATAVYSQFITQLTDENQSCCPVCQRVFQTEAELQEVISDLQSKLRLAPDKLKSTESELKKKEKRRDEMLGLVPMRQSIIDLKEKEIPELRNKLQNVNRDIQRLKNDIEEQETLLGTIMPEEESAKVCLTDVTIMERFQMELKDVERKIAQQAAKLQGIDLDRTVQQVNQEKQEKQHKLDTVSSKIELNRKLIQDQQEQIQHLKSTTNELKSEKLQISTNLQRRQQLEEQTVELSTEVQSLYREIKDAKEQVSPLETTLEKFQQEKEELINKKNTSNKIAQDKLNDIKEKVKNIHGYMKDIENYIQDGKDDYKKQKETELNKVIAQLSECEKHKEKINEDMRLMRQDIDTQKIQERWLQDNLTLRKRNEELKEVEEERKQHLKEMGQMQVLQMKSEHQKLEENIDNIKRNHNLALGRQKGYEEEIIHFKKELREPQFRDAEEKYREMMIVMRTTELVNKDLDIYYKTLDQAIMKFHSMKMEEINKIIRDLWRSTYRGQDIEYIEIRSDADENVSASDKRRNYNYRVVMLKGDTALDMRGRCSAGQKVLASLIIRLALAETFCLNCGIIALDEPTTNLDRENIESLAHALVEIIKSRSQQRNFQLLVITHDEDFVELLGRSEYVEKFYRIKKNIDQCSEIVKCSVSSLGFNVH

Columns and labels:
[1] = target: T1, P2-GFP C93R mutant (human) (UniProt P41235); assay: co-IP; HCT116 cells transfected with wild-type or mutant P2-GFP constructs, total extracts 48 h later, GFP-Trap beads overnight, six washes in Triton buffer, Western blot; protein-A sepharose beads as control
T1 sequence: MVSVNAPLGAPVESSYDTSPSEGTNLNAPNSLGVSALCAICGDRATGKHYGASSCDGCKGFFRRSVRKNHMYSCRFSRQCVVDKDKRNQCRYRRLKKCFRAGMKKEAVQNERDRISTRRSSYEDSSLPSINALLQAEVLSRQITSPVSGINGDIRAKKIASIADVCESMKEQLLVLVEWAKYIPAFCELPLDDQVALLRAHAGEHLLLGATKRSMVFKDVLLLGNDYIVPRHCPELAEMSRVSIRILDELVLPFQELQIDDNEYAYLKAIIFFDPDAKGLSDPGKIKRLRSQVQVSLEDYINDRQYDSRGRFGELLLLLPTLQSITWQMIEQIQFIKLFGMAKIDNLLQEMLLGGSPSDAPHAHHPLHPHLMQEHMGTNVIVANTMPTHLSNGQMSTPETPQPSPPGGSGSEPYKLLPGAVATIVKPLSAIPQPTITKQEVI

[2] = target: T2, P2-GFP GR P-box mutant (human) (UniProt P41235); assay: as above
T2 sequence: T1 sequence with D56G, G57S, G60V, R93C

[3] = target: T3, P2-GFP ΔA/T-box mutant (human) (UniProt P41235); assay: as above
T3 sequence: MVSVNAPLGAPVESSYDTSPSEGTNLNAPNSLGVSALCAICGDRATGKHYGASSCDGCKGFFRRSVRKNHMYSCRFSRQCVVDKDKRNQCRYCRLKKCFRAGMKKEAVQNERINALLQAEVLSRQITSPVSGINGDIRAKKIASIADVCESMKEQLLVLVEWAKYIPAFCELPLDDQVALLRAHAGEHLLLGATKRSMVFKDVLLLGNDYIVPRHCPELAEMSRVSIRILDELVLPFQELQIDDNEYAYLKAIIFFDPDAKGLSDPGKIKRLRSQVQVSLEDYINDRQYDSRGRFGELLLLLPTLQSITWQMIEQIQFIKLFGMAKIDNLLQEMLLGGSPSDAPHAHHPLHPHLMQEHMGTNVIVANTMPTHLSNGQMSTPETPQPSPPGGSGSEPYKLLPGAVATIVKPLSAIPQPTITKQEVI

[4] = target: T4, P2-GFP ΔAF-2 mutant (human) (UniProt P41235); assay: as above
T4 sequence: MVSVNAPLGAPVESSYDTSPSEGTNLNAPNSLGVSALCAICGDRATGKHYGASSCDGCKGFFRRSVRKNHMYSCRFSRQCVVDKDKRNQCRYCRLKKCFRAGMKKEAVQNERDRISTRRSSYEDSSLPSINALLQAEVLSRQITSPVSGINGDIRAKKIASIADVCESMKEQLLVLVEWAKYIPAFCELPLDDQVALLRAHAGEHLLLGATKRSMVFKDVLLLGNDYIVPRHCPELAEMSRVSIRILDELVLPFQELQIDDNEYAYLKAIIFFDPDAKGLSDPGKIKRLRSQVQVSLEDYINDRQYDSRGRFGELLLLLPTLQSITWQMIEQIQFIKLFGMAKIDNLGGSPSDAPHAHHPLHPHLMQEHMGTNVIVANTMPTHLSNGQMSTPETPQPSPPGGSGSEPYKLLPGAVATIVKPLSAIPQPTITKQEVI

[5] = target: T5, P2-GFP ΔP-box mutant (human) (UniProt P41235); assay: as above
T5 sequence: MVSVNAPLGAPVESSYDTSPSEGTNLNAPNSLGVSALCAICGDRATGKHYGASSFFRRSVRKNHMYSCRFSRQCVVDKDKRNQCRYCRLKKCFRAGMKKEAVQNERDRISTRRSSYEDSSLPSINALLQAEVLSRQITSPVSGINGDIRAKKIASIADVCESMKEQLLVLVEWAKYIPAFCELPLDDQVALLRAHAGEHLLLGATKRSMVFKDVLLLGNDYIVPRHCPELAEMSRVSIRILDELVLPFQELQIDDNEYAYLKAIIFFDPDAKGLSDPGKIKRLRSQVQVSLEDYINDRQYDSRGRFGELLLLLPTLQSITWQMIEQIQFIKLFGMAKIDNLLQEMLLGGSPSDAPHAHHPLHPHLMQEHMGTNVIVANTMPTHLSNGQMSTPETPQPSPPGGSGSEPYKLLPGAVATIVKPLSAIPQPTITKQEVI

[6] = target: T6, wild-type P2-GFP construct, transfected (human) (UniProt P41235); assay: as above
T6 sequence: T1 sequence with R93C

[7] = target: T7, endogenous HNF4α (human (endogenous in HT-29 and LoVo)) (UniProt P41235); assay: co-IP; endogenous proteins, total extracts of HT-29 and LoVo cells (Triton buffer, sonicated), overnight with anti-HNF4α (sc-6556) or anti-DNA-PKcs (MA5-13404), Protein G beads, Western blot; beads alone as control
T7 sequence: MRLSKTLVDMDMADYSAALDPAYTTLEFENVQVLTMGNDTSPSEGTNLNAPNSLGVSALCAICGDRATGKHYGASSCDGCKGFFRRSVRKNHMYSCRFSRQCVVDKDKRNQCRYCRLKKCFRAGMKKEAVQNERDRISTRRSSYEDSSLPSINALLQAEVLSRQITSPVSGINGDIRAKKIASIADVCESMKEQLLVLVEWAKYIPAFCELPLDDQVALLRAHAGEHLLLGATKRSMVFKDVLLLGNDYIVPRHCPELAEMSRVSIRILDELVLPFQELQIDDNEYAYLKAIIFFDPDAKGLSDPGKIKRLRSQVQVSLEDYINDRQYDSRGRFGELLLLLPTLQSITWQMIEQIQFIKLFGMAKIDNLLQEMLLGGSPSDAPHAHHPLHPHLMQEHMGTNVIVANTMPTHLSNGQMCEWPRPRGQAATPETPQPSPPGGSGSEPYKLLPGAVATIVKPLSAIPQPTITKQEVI

[8] = target: DNA-PKcs, the catalytic subunit of a nuclear DNA-dependent kinase (human (endogenous in HEK293T, HT-29, LoVo, HCT116)) (UniProt P78527); assay: as above

Measured: binding

PARP-1 (from UniProt P09874 1-1014)
not listed: [8]
binds: all other assays above

RAD50 (from UniProt Q92878 1-1312)
not listed: [8]
binds: all other assays above

DNA-PKcs, the catalytic subunit of a nuclear DNA-dependent kinase (from UniProt P78527 1-4128)
not listed: [7] | [8]
binds: all other assays above

B1: endogenous HNF4α (protein, UniProt P41235 1-474)
chain: T7 sequence
binds: [8]
